The values that follow come from publication PMC6472371.

Chains of the proteins cited; added tags and fusions are not shown.
UniProt Q9H8M2: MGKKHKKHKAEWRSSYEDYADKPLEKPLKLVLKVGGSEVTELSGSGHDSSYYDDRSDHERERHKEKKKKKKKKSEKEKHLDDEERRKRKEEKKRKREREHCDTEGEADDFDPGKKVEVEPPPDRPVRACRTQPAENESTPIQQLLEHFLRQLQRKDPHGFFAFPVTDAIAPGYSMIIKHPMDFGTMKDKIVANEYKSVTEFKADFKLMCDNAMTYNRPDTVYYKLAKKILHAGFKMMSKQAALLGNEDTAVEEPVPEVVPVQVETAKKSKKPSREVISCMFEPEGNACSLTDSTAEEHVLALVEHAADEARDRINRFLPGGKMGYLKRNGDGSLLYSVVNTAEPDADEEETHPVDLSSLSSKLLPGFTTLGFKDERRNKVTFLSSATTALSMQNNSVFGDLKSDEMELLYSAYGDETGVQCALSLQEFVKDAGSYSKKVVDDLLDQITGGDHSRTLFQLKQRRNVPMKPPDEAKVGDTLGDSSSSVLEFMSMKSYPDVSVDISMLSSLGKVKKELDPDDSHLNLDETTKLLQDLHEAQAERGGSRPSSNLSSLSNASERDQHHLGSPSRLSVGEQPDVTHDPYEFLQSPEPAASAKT
UniProt P51532: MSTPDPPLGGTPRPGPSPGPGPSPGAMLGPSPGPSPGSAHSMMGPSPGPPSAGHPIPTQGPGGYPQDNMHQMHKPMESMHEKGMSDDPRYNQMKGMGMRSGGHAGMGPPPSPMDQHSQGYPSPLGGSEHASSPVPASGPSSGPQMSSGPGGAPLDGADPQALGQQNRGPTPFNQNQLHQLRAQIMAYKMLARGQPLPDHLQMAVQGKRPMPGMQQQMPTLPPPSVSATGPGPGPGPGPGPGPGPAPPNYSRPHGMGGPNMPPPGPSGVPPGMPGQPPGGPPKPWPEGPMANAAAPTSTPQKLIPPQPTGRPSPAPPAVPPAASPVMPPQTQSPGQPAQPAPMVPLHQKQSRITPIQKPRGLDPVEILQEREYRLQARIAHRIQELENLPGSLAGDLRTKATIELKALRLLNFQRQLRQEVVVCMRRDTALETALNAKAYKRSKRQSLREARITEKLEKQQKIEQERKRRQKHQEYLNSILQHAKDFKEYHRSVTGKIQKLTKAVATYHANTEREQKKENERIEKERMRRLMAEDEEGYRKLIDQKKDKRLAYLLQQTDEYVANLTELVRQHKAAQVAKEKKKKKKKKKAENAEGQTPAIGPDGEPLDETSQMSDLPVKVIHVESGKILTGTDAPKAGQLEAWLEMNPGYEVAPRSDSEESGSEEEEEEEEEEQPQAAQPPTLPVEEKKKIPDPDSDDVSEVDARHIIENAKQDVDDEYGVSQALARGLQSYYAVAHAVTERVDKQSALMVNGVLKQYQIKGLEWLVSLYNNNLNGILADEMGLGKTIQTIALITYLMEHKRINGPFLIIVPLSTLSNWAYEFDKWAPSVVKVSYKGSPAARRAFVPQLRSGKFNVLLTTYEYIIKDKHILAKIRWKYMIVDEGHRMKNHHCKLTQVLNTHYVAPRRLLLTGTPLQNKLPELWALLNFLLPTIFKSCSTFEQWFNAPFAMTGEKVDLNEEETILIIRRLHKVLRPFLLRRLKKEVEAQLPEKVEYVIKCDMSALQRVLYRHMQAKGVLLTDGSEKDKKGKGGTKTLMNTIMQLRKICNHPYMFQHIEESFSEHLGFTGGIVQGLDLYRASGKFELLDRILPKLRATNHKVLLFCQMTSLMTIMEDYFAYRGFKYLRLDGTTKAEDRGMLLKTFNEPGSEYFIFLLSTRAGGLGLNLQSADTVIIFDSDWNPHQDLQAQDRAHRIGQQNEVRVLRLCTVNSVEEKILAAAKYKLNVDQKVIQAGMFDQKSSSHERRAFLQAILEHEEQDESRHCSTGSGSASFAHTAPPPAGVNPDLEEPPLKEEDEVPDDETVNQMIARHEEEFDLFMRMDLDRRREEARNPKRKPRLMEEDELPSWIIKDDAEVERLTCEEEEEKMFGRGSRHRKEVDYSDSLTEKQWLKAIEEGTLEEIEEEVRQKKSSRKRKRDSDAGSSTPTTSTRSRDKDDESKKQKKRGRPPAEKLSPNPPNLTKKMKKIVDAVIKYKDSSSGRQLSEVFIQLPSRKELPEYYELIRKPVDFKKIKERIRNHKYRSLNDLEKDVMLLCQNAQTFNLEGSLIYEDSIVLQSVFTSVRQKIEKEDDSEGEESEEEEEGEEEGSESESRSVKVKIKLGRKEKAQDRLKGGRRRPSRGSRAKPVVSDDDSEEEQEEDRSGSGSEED

No constants are given. Whether binding was seen depends on the method and setting. Binding seen in cells or lysates may run through a third protein. Some entries that bind do so weakly or less than the wild type.

In this assay the target is GFP-BRD9 expressed in U937 cells (UniProt Q9H8M2). As to the kind of experiment: pull-down; GFP pull-down assay of U937 cells expressing GFP-BRD9, followed by western blotting; performed as previously described (ref. 32). (A western blot detects proteins with antibodies after separation by electrophoresis.)

As to “SMARCA4 (endogenous, U937) (from UniProt P51532 1-1647)”, the binding entry is on record as “binds”.
